# Experimental data reported in PubChem BioAssay AID1458 (National Center for Advancing Translational Sciences (NCATS), 2008).
# The whole screen tested about 210,000 compounds, of which about 5,900 (2.8%) were called active. Not shown: some 5% with an inconclusive outcome. Calls follow the shape of the dose curve; as a rule, active = well fitted activation curve with a large enough effect; inconclusive = small, poorly fitted or top-dose-only effect; inactive = no such curve, though single readings can be large or run the other way. The entries are a selection whose mix differs from that of the whole data set. Entries without a call were filed so in the source.
# Test: qHTS Assay for Enhancers of SMN2 Splice Variant Expression; also: nearly all actives have a fitted effect of over 55% in size; as to activity change, positive = activation: % of control where 0% means no effect
# Details: HEK293 SMN2-luciferase splicing reporter, luminescence, 30-36 h; activity change, positive = activation: at 46.1 µM (top of the series) unless noted
# How it was run: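 HEK293 cells carry an SMN2 minigene-luciferase reporter in which exon 7 inclusion puts luciferase in frame. Cells were seeded at 2000 cells/well, attached for 10-12 hours, then exposed to compounds for 30-36 hours at 37C before ONE-Glo luminescence.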
# Potency is read from the fitted curve at half-maximal effect.
Structure (SMILES),"activity change, positive = activation",Potency
O=C(c1cccc(F)c1)N1CCC[C@@]2(CCN(C(c3ccccc3)c3ccccc3)C2)C1,inactive: -71.6%,
CCC(CC)C(=O)Nc1cccc(C(=O)N2CCCC2)c1,35.1%,
COc1ccc(CNc2nc(-c3cccnc3)nn2C(=O)c2ccco2)cc1,70.9%,
CC1CCN(CC(=O)Nc2ccccc2-c2ccccc2)CC1,-36.2%,
CCOC(=O)C(C)Oc1ccc(C2NC(=O)NC(C)=C2C(C)=O)cc1Br (stereo not given),64.1%,
CCOc1cc(C(=S)N2CCOCC2)ccc1OS(=O)(=O)c1ccccc1,inactive: -33.7%,
Cc1c(Cl)cccc1NC(=S)NCc1cccn1C,4.32%,
Cc1ccc(-c2nc(C#N)c(NCCN3CCCCC3)o2)cc1,21.9%,
CC1=C(c2ccc(C)c(C)c2)S(=O)(=O)N=C1N1CCC(C(=O)NCCc2ccc(Cl)cc2)CC1,33.6%,
Cc1ccc2nc(SC(C)C(=O)N3CCOCC3)[nH]c2c1 (stereo not given),,active: 20 µM
CC(C)c1onc(C(=O)NCc2ccccc2)c1[N+](=O)[O-],42.9%,
Cc1ccc(-c2nnc(SCC(=O)N3CCCC3)o2)cc1,,active: 14.1 µM
COc1ccc(Nc2c(-c3ccco3)nc3ccc(C)cn23)cc1,-35.9%,
CCOC(=O)c1ccc2nc(NC(=O)C(C)C)sc2c1,,active: 11.2 µM
CCOC(=O)C1CCCN(Cc2cc(=O)oc3cc(C)ccc23)C1 (stereo not given),210%,
Cc1cc(C(F)(F)F)c(C#N)c(SCC(=O)Nc2nc3ccccc3s2)n1,inactive: -87.9%,
c1ccc(-c2nnc(-c3ccco3)o2)cc1,174%,
C=CCOC(=O)c1[nH]c2c(c1C)C(=O)CC(c1cc(OC)c(OC)c(OC)c1)C2 (stereo not given),-89.6%,
C/C(=N\Nc1ccc([N+](=O)[O-])cc1)c1ccco1,179%,
O=C(Nc1nc2c(s1)CCCC2)c1cccnc1,32.3%,
CCOC(=O)N1CCN(S(=O)(=O)c2ccc(OCC(=O)OC)cc2)CC1,36.3%,

Structure (SMILES),"activity change, positive = activation",Potency
CCOC(=O)c1cc(OC(=O)c2cccs2)n(-c2ccccc2)n1,37.2%,
Cc1ccccc1NC(=O)C(=Cc1ccc(C(=O)O)cc1)C(=O)Nc1ccccc1C,inactive: -52.7%,
O=C(CC1C(=O)NCCN1C(=O)c1ccc(F)cc1)OCc1ccccc1 (stereo not given),56%,
Cc1occc1C(=O)NCc1ccccc1F,21.8%,
Oc1oc(-c2ccccc2Br)nc1/C=N/c1ccccn1,45.8%,
O=C(NCCCN1CCOCC1)c1ccccc1-c1ccccc1,48%,
O=C(Nc1ccc2c(c1)CCC2)c1c(F)cccc1Cl,,active: 14.1 µM
Cn1c(=O)c2c(c3ccccc31)OC(C)(C)CC2,51.3%,
Cc1ccc(-c2cn3cccnc3n2)cc1,40%,
Cc1ccc(C(=O)NCCNS(C)(=O)=O)cc1,37.4%,
CCOc1ccc(/C=N/N(C)c2ccccc2)cc1OC,,active: 25.1 µM
C#CCNC(=O)/C=C/c1ccc(C)cc1,,active: 12.6 µM
COc1ccc(C(O)(CCc2ccccc2)CCN2CCCCC2)cc1 (stereo not given),inactive: -66.6%,
C=CCNc1ncnc2c1[nH]c1ccc(C)cc12,,active: 2.82 µM
Cc1nnc2c(-c3ccccc3)nc3ccccc3n12,30.8%,
CCNc1nc(N)c(C(=O)c2ccc(Cl)s2)s1,,active: 20 µM
CCOC(CCn1c(SCc2cccc([N+](=O)[O-])c2)nc2ccccc2c1=O)OCC,inactive: -35.4%,
Cc1cc(NC(=O)CCCSc2nc(-c3ccco3)cc(C(F)(F)F)n2)n(-c2ccccc2)n1,inactive: -40.6%,
Cc1nc2ccccc2c(=O)n1NC(=O)c1c(O)c2ccccc2n(C)c1=O,-53.8%,
CC(C)Oc1ccc(C(=O)Nc2cccc3cccnc23)cc1,31.4%,
CCOc1ccc2nc(NS(C)(=O)=O)sc2c1,,active: 14.1 µM
Cc1sc(=NC(=O)c2ccco2)n(C)c1-c1ccccc1,,active: 2.24 µM

Structure (SMILES),"activity change, positive = activation",Potency
COc1ccc(CNC(=O)C2CCCN(S(=O)(=O)c3c(C)n[nH]c3C)C2)cc1 (stereo not given),19.7%,
Cc1ccc(S(=O)(=O)N(C)CC(=O)Nc2nc3ccccc3s2)cc1,-40.4%,
N/C(=N\OC(=O)COc1ccc(Br)cc1Cl)c1cccnc1,,active: 17.8 µM
CCCN1CCN(C(=S)Nc2ccc3nc(N4CCN(CC)CC4)cc(C)c3c2)CC1,43.9%,
Cc1cc(NC(=O)c2ccc(Cn3nc(C)c(Br)c3C)o2)no1,,active: 20 µM
CC(C)(C)NS(=O)(=O)c1ccc(CCC(=O)Nc2cc(Cl)ccc2Oc2ccccc2)cc1,-71.5%,
Cc1ccc(P(=Nc2ccccc2)(N2CCOCC2)N2CCOCC2)o1,50.5%,
CCOc1ccc(NC(=O)c2cc3c(C)nc4ccccc4c3o2)cc1,inactive: -32.5%,
CCCNC(=O)Nc1nccs1,inactive: -15.8%,
CCn1nnc(NC(=O)c2ccc(C(C)(C)C)cc2)n1,117%,
O=C(Nc1ccc(S(=O)(=O)N2CCCCC2)cc1)C1CCCN(C(=O)c2ccc(Cl)cc2)C1 (stereo not given),-64.2%,
COC(=O)c1sccc1NC(=O)C1C2C=CC(O2)C1C(=O)O (stereo not given),28.8%,
CCOc1ccccc1NS(=O)(=O)c1cccc2nsnc12,31.2%,
Cc1ccc(OCCSc2nc(N)cc(N)n2)cc1,66.8%,
COc1cc2nc(SCC(=O)NCCc3ccccc3)n(Cc3ccco3)c(=O)c2cc1OC,34.8%,
C=C(C)c1cccc(C(C)(C)NC(=O)N2CCCC(C)C2)c1 (stereo not given),-37.8%,
Cn1cnnc1SCC(=O)NNC(=O)COc1ccc(Br)cc1,30%,
Oc1ccccc1-c1cc(-c2ccccc2Cl)[nH]n1,,active: 3.55 µM
COc1cc(OC)c(NC(=O)Cn2ncn3c(cc4cc(C)ccc43)c2=O)cc1Cl,42.9%,
COc1ccc(CNC(=O)C2CCN(S(=O)(=O)c3cc(OC)ccc3OC)CC2)cc1,25.7%,
COc1cc(-c2nn3c(-c4cccc(C)c4)nnc3s2)cc(OC)c1OC,22.2%,
COC(=O)C(C)N1C(=O)S/C(=C\c2cc(C)n(-c3ccccn3)c2C)C1=O (stereo not given),inactive: -58.7%,

Structure (SMILES),"activity change, positive = activation",Potency
Cc1nc2nc(CNC(=O)c3cccc(F)c3)nn2c(C)c1CCC(=O)Nc1cccc(Cl)c1,-31.6%,
COc1ccc(C2CCCN2C(=S)Nc2cccc(Cl)c2C)cc1OC (stereo not given),inactive: -80.3%,
Cc1[nH]c2c(Br)cccc2c1[C@H]1[C@@H](CC#N)C1(C)C,-31.4%,
COC(=O)C1C(=O)c2c([nH]c(C(=O)OC3CCCC3C)c2C)CC1C (stereo not given),,active: 11.2 µM
O=C(Nc1cccc2ccccc12)c1ccc(Br)o1,32.1%,
COc1ccc(/C=C(\C#N)C(=O)OCC(=O)Nc2ccc(C(C)(C)C)cc2)cc1,26.5%,
CC(=O)c1cc2c(cc1NC(=O)c1ccc(C)cc1)OCO2,33.1%,
CC(C(=O)NCC1(c2ccccc2)CCCC1)N1CCOCC1 (stereo not given),36.7%,
COc1ccccc1C(=O)NC(=S)NNC(=O)c1sc2ccccc2c1Cl,-67.8%,
COc1ccc(-c2noc(CSc3nc4ccc(C)cc4[nH]3)n2)cc1,inactive: -46.7%,
CC1CCN(c2nc3ccc(C(=O)NC(C)C)cc3s2)CC1,,active: 0.794 µM
Cc1ccc(NC(=S)NCc2ccc3[nH]c4c(c3c2)CCCC4)cc1,-23.9%,
CCN(CC)CCn1c(=N)n(CC(O)COc2cccc(C)c2)c2ccccc21 (stereo not given),inactive: -92%,
COc1cccc(C(=O)Nc2cccc(C(C)=O)c2)c1,88.7%,
O=C(C[n+]1cccc2ccccc21)c1ccccc1,22.3%,
COc1ccc(/C=C/C(=O)C23CC4CC(CC(C4)C2)C3)cc1CN1CCOCC1,inactive: -55.7%,
CS(=O)(=O)Nc1ccc(C(=O)NCCc2ccccc2)cc1,,active: 11.2 µM
CCOC(=O)CCc1c(C)c2ccc(OCC(=O)N(CC)CC)c(C)c2oc1=O,27.4%,
NC(=O)Nn1c(CCC(=O)O)ccc1-c1ccc(Br)cc1,32.5%,
Cc1ccc(OCc2nnc(SCC(=O)Nc3cc(C)on3)n2C)cc1,15%,
Cc1ccc(NC(=O)C2=C(c3ccccc3)S(=O)(=O)CCS2(=O)=O)cc1,inactive: -44.9%,
C=CCOc1ccc(/C(CC)=N/O)c(OC)c1,54.6%,

# By substructure, those above with a thiophene ring, fused or not.
Structure (SMILES),"activity change, positive = activation",Potency
CCOC(=O)c1cc(OC(=O)c2cccs2)n(-c2ccccc2)n1,37.2%,
CCNc1nc(N)c(C(=O)c2ccc(Cl)s2)s1,,active: 20 µM
COC(=O)c1sccc1NC(=O)C1C2C=CC(O2)C1C(=O)O (stereo not given),28.8%,
COc1ccccc1C(=O)NC(=S)NNC(=O)c1sc2ccccc2c1Cl,-67.8%,

# Further entries:

Structure (SMILES),"activity change, positive = activation",Potency
O=C(CN(C(=O)CNS(=O)(=O)c1ccccc1)C1CCCC1)NCC1CCCO1 (stereo not given),33.9%,
CC(C)(C)NC(=S)Nc1ccc(Nc2ccccc2)cc1,inactive: -36.1%,
O=C(NCCc1ccc(F)cc1)c1ccc([N+](=O)[O-])cc1,,active: 11.2 µM
COc1ccc(-c2ccc(-c3nc4c(c(=O)[nH]c(=O)n4Cc4ccccc4)n3C)o2)c([N+](=O)[O-])c1,-54.5%,
O=S(=O)(NCCc1csc(-c2cccnc2)n1)c1ccc(Cl)s1,inactive: -37%,
COCCCNS(=O)(=O)c1ccc(Oc2ncc(C(F)(F)F)cc2Cl)cc1,inactive: -67.4%,
CCOC(=O)C1CCCN(CCC(=O)Nc2ccc(F)c(F)c2)C1 (stereo not given),46.2%,
CCOc1cc(S(=O)(=O)NCc2cccs2)ccc1Cl,26.2%,
CC1CN/C(=C\C(=O)c2ccc(Br)cc2)C(=O)N1 (stereo not given),-42.3%,
CN1CCc2c(sc3nc(SCC(N)=O)n(-c4ccccc4)c(=O)c23)C1,74.4%,
CC1CCCN(C(=O)c2ccc(CSc3nc4ccncc4n3Cc3ccccc3)cc2)C1 (stereo not given),inactive: -32.6%,
Cc1nc(NC(=O)C2CCCCC2)sc1C,,active: 20 µM
Cc1ccc(S(=O)(=O)Nc2ccccc2CNc2ccccn2)cc1,inactive: -13.4% [at 1.84 µM],
CCCN(CC1CC1)C(=O)Nc1ccccc1C,41.1%,
Cc1ccc(N=Nc2ccc(O)c3ncccc23)cc1C,-33.1%,
COc1ccc(CCn2c(C)cc(C(=O)CSc3nc(N)cc(=O)[nH]3)c2C)cc1,-48.9%,
O=C(Cc1cccs1)Nc1ccccc1C(=O)O,,active: 10 µM
Clc1ccccc1CSc1ncccn1,45.1%,
COC(=O)c1ccc(CSc2nc3ccccc3c(=O)n2Cc2ccco2)o1,-64.9%,
O=C(Nc1nc2cc3c(cc2s1)OCCO3)c1cccc(S(=O)(=O)N2CCOCC2)c1,inactive: -46.1%,
CCOC(=O)c1sc(=NC(=O)c2cccs2)n(C)c1C,,active: 3.16 µM
O=C1/C(=C/N(C(=O)c2ccco2)c2ccc(Br)cc2)Sc2ccccc21,137%,
